Source: patent US20240238386A1, “METHODS FOR INCREASING RED BLOOD CELL HALF-LIFE AND ASSOCIATED TREATMENT OF ANEMIA” (Marshall University Research Corporation, priority 2021, published 2024)
Values joined by “and” are separate entries in the source; they are usually repeats but may differ in a detail not shown here. Identical values can stand only once. “Also recorded” adds a separate entry of the source.

Experiments:
[1] = Plasma creatinine (mouse creatinine assay kit), renal function; assay type: in vivo, C57BL6 mice; details: PNx mice; compared to the PNx group; data not shown
Description: (§1) Animal study: All animal care and experiments were approved by the Marshall University Institutional Animal Care and Use Committee (IACUC) in accordance with the National Institutes of Health (NIH) Guide for the Care and Use of Laboratory Animals. The animal facility is AAALAC-accredited and maintained at an SPF status. C57BL6 mice (10-12 weeks old) were purchased from the Jackson Laboratory (Bar Harbor, ME) and housed in a pathogen-free animal facility under a 12-hour light/dark cycle. Standard rodent chow diet (Rodent Diet 5001, LabDiet, St Louis, MO) and water were supplied ad libitum. Mice were randomly divided into six experimental groups: (1) Sham; (2) Sham+pNaKtide; (3) ⅚th partial nephrectomy (PNx); (4) PNx+pNaKtide; (5) PNx+NaKtide; and (6) PNx+scramble pNaKtide (sc-pNaKtide).
(§2) The ⅚^th partial nephrectomy with pole ligation (PNx) and sham surgery: PNx and sham surgery methods were performed as described previously. Briefly, the PNx surgery is divided into two separate procedures. The first surgery involves ligation of the left kidney of the upper and lower poles. Seven days later, the second surgery involves the removal of the right kidney. If the mice were in overall healthy condition after 3 days, the study was commenced. […]
(§3) Plasma BUN and creatinine levels were measured to assess the effect of PNx (and administration of the pNaKtide, NaKtide, and sc-pNaKtide) on renal function.

[2] = Plasma BUN (urea assay kit), renal function; assay type: in vivo, C57BL6 mice; details: PNx mice
Description: Chemicals, reagents, and antibodies: All chemicals, except otherwise mentioned, were obtained from Sigma-Aldrich (St. Louis, MO). EZ-Link Sulfo-NHS Biotin (water-soluble and cell membrane-impermeable, Cat #A39256), fluorescent DNA dye 7-Aminoactinomycin-D (7-AAD, Cat #A1310), Thiazole Orange (Cat #50-196-4656), protease/phosphatase inhibitor cocktail (Cat #78442), and Pierce Reversible Protein Stain Kit—for PVDF membrane (Cat #24585) were from ThermoFisher Scientific (Waltham, MA). Antibody against EPO (clone B-4, Cat #sc-5290), RIPA lysis buffer system (Cat #sc-24948), and HRP-conjugated secondary antibodies were from Santa Cruz (Santa Cruz, CA). Streptavidin-PE (Cat #562284), Annexin V binding buffer (10×, Cat #556454), Annexin V-APC (Cat #550475), and microtainer (Cat #365965) were from BD Biosciences (San Jose, CA). DNPH (Cat #D199303) and anti-DNP antibody (Cat #D9656) were from Sigma-Aldrich. Urea assay kit (Cat #ab8362) for plasma BUN assay was from Abcam (Boston, MA), and Iron/TIBC Reagents (Cat #1750460) was from Pointe Scientific (Canton, MI). […]
as §3

[3] = tested on: ⅚th partial nephrectomy (PNx); details: cited from earlier work
VEGFA = details: human tumor cell lines; cited from earlier work
reticulocytes = test: Reticulocyte count by flow cytometry (Thiazole Orange); assay type: in vivo, C57BL6 mice; details: end of experiment (Day 28)
Description: as §1, with “Mice were randomly divided into six experimental groups: (1) Sham; (2) Sham+pNaKtide; (3) ⅚th partial nephrectomy (PNx); (4) PNx+pNaKtide; (5) PNx+NaKtide; and (6) PNx+scramble pNaKtide (sc-pNaKtide).” left out
Assessment of reticulocyte count by flow cytometry: To measure the reticulocyte count, 10 μl of whole blood sample was gently mixed with 200 μl of pre-chilled PBS/ACD-A (1:4, vol/vol) solution, and then incubated with 10 μl of Thiazole Orange at room temperature in the dark for 30 minutes. […] Pellets were then suspended in 200 μl of PBS/ACD-A buffer and analyzed with the flow cytometer. […] The cells of interest were then evaluated for fluorescence characteristics. Gated populations were set between the negative and positive populations in the fluorescence histogram for Thiazole Orange, thus distinguishing between reticulocytes and mature erythrocytes. The reticulocytes were expressed as percentages of the total erythrocytes. […]

[4] = tested on: ⅚th partial nephrectomy (PNx) mice; test: Hematocrit (Hct) in Sham and ⅚th partial nephrectomy (PNx) mice; assay type: in vivo, C57BL6 mice; details: 25 mg/kg s.c. weekly, three doses
Description: as §1, §2

RBC [5] = test: Cell surface phosphatidylserine of RBC by Annexin V-APC binding (eryptosis); assay type: in vivo, C57BL6 mice; details: PNx mice; Day 28
Description: as §1
The ⅚^th partial nephrectomy with pole ligation (PNx) and sham surgery: PNx and sham surgery methods were performed as described previously. Briefly, the PNx surgery is divided into two separate procedures. […]
Assessment of cell surface Phosphatidylserine (PS) level of RBC by flow cytometry: The PS-specific binding of Annexin V was used to quantitate PS on RBC membrane for eryptosis. […] Fluorescence parameters were collected and analyzed using NovoExpress software v1.3. […] The threshold value was determined in preliminary studies based on analysis of the negative and positive controls. […]

EPO = test: Immunoblotting of plasma EPO; assay type: in vivo, C57BL6 mice; details: end of experiment
Description: as §1
(§4) The ⅚^th partial nephrectomy with pole ligation (PNx) and sham surgery: PNx and sham surgery methods were performed as described previously. […]
(§5) Immunoblotting analyses of protein carbonylation and EPO in plasma samples: Plasma (50 μL) samples were lysed with 250 μL of RIPA lysis buffer (with protease and phosphatase inhibitor cocktail) and cleared by centrifugation. The protein concentration was determined by BCA protein assay kit (Bio-Rad). […] The signals from immunoblotting and PVDF membrane protein stain were obtained with FluorChem M and calculated with AlphaView software (ProteinSimple).

[6] = Iron homeostasis (plasma iron, TIBC, UIBC, iron saturation rate); assay type: in vivo, C57BL6 mice; details: end of experiment; comparison amongst groups
Description: as §1
(§6) The ⅚^th partial nephrectomy with pole ligation (PNx) and sham surgery: PNx and sham surgery methods were performed as described previously. Briefly, the PNx surgery is divided into two separate procedures. The first surgery involves ligation of the left kidney of the upper and lower poles. […]
Assessment of iron homeostasis: Plasma iron concentration, TIBC (total iron-binding capacity), UIBC (unsaturated iron-binding capacity), and iron saturation rate (%) were assessed with Iron/TIBC Reagent Set (Cat #1750460) from Pointe Scientific (Canton, MI), according to the manufacturer's instruction.

protein carbonylation = test: Protein carbonylation of plasma samples (immunoblotting); assay type: in vivo, C57BL6 mice; details: PNx mice; plasma at the experiment's conclusion
Description: as §1, §4, §5

RBC [7] = test: RBC half-life by flow cytometry (biotinylated RBC, streptavidin-PE); assay type: in vivo, C57BL6 mice
Description: as §1
as §6, with “poles. Seven days later, the second surgery involves the removal of the right kidney.” for “poles.”
Assessment of RBC half-life by flow cytometry: The RBC half-life was assessed by labeling RBC with biotin and detection with streptavidin-PE. […] Bodyweight for each mouse was measured to calculate the dose and volume. […]

pNaKtide: GRKKRRQRRRPPQSATWLALSRIAGLCNRAVFQ; TAT cell penetrating peptide of SEQ ID NO: 2 fused to the NaKtide sequence; cell membrane permeable (TAT NaKtide Fusion Polypeptide)
PNx-induced increase in plasma creatinine level [1]: did not significantly reduce PNx-induced increase in creatinine level | PNx-induced increase in plasma BUN [2]: did not ameliorate PNx-induced increase in BUN | PNx-induced anemia (earlier studies) ([3]; PNx, background): restored | Plasma BUN and creatinine in the setting of PNx (previous observations) ([3]; systemic administration): neither systemic administration of pNaKtide nor lentiviral specific delivery of NaKtide to adipocytes resulted in substantial changes in plasma BUN and creatinine | Expression of VEGFA (VEGFA): reduced the expression of VEGFA | Reticulocyte count (normalized with hematocrit) in PNx group (reticulocytes; PNx mice): significantly reduces reticulocyte count | Reticulocyte count (normalized with hematocrit) in Sham group (reticulocytes; Sham mice): did not significant affect reticulocyte count | Hematocrit (Hct), PNx-induced decrease ([4]; PNx mice, Day 14 and 28, 25 mg/kg): corrected by pNaKtide administration; also recorded: ameliorated the anemia | Hematocrit values in sham animals ([4]; Sham mice): did not change hematocrit values | PNx-induced increase in Annexin V binding (PS exposure at the cell surface, eryptosis) (RBC [5]): blocked | Plasma EPO level, treated PNx groups vs Sham group (EPO; PNx mice): significantly higher compared with the Sham group | Plasma EPO level, Sham+pNaKtide vs Sham (EPO; Sham mice): similar | Iron homeostasis: plasma iron level, TIBC, UIBC and iron saturation rate [6]: did not significantly change iron homeostasis | PNx-induced protein carbonylation of plasma samples (protein carbonylation): reduces PNx-induced protein carbonylation nearly back to normal level | RBC half-life, treated PNx groups (RBC [7]; PNx mice, untreated PNx group 19 days, sham 34 days): 35 days and 34 days | RBC half-life, Sham+pNaKtide group (RBC [7]; Sham mice, untreated sham group 34 days): 33 days and 32 days
